Measured values reported in article PMC5663849.
Results are given in words; binding and its absence hold for the method and conditions named. Binding seen in cells or lysates may run through a third protein. Some binding calls cover weakened binding; strength is not graded here.

The chains behind the UniProt entries cited, without tags or fusion partners. Residues count along the entry.
UniProt P20491, residues 19-86: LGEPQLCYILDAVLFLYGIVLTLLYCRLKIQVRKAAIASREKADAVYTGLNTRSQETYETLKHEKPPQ
UniProt O08586: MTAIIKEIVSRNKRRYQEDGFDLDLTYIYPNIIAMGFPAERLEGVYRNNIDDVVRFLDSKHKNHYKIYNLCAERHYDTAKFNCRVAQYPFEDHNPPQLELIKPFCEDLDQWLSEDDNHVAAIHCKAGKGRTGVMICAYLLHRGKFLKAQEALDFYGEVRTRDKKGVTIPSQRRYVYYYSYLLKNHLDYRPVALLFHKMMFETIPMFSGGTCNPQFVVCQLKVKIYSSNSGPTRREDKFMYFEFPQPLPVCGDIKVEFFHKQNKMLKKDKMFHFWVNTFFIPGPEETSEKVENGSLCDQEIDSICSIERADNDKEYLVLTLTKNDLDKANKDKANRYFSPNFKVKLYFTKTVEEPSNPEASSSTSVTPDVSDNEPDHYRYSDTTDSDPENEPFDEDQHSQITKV
UniProt P29351: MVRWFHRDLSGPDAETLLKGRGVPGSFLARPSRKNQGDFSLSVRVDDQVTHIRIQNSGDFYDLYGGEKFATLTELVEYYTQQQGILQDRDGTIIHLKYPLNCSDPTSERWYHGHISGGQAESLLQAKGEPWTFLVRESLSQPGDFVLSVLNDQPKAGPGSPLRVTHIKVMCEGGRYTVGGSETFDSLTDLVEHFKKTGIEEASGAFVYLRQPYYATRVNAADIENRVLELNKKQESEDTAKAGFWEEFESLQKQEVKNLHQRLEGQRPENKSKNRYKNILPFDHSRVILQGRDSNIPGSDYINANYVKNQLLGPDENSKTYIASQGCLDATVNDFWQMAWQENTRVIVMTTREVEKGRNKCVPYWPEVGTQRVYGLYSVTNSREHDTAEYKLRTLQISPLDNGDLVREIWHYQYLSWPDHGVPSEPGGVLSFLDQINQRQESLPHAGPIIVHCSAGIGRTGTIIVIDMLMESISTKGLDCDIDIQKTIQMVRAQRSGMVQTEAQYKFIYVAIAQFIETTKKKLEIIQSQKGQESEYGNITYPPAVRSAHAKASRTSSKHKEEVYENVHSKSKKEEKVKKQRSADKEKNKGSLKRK

Target: FcεRI γ-chain (mouse (endogenous in BMDCs)) (UniProt P20491)
Test: co-IP; WT mouse BMDCs treated with curdlan or dZym (50 µg/mL), harvested at indicated time points; lysates precleared with protein A/G beads (4°C, 2 h), incubated with anti-FcRγ Ab at 4°C for 16 h, protein A/G beads 2 h; SDS-PAGE and Western blot for SHP-1, SHP-2, SHIP-1, PTEN

Substance | binding
PTEN (phosphatase and tensin homolog) (from UniProt O08586 1-403) (enzyme) | binds
SH2 domain-containing phosphatase-1 (from UniProt P29351 1-595) (enzyme) | binds
